The results in this text go back to PMC4237283.

Sequences of proteins named here, by UniProt entry; tags and fusion partners are left off. A change or cut given only in a name is not applied to a line headed by its entry.
UniProt P98161: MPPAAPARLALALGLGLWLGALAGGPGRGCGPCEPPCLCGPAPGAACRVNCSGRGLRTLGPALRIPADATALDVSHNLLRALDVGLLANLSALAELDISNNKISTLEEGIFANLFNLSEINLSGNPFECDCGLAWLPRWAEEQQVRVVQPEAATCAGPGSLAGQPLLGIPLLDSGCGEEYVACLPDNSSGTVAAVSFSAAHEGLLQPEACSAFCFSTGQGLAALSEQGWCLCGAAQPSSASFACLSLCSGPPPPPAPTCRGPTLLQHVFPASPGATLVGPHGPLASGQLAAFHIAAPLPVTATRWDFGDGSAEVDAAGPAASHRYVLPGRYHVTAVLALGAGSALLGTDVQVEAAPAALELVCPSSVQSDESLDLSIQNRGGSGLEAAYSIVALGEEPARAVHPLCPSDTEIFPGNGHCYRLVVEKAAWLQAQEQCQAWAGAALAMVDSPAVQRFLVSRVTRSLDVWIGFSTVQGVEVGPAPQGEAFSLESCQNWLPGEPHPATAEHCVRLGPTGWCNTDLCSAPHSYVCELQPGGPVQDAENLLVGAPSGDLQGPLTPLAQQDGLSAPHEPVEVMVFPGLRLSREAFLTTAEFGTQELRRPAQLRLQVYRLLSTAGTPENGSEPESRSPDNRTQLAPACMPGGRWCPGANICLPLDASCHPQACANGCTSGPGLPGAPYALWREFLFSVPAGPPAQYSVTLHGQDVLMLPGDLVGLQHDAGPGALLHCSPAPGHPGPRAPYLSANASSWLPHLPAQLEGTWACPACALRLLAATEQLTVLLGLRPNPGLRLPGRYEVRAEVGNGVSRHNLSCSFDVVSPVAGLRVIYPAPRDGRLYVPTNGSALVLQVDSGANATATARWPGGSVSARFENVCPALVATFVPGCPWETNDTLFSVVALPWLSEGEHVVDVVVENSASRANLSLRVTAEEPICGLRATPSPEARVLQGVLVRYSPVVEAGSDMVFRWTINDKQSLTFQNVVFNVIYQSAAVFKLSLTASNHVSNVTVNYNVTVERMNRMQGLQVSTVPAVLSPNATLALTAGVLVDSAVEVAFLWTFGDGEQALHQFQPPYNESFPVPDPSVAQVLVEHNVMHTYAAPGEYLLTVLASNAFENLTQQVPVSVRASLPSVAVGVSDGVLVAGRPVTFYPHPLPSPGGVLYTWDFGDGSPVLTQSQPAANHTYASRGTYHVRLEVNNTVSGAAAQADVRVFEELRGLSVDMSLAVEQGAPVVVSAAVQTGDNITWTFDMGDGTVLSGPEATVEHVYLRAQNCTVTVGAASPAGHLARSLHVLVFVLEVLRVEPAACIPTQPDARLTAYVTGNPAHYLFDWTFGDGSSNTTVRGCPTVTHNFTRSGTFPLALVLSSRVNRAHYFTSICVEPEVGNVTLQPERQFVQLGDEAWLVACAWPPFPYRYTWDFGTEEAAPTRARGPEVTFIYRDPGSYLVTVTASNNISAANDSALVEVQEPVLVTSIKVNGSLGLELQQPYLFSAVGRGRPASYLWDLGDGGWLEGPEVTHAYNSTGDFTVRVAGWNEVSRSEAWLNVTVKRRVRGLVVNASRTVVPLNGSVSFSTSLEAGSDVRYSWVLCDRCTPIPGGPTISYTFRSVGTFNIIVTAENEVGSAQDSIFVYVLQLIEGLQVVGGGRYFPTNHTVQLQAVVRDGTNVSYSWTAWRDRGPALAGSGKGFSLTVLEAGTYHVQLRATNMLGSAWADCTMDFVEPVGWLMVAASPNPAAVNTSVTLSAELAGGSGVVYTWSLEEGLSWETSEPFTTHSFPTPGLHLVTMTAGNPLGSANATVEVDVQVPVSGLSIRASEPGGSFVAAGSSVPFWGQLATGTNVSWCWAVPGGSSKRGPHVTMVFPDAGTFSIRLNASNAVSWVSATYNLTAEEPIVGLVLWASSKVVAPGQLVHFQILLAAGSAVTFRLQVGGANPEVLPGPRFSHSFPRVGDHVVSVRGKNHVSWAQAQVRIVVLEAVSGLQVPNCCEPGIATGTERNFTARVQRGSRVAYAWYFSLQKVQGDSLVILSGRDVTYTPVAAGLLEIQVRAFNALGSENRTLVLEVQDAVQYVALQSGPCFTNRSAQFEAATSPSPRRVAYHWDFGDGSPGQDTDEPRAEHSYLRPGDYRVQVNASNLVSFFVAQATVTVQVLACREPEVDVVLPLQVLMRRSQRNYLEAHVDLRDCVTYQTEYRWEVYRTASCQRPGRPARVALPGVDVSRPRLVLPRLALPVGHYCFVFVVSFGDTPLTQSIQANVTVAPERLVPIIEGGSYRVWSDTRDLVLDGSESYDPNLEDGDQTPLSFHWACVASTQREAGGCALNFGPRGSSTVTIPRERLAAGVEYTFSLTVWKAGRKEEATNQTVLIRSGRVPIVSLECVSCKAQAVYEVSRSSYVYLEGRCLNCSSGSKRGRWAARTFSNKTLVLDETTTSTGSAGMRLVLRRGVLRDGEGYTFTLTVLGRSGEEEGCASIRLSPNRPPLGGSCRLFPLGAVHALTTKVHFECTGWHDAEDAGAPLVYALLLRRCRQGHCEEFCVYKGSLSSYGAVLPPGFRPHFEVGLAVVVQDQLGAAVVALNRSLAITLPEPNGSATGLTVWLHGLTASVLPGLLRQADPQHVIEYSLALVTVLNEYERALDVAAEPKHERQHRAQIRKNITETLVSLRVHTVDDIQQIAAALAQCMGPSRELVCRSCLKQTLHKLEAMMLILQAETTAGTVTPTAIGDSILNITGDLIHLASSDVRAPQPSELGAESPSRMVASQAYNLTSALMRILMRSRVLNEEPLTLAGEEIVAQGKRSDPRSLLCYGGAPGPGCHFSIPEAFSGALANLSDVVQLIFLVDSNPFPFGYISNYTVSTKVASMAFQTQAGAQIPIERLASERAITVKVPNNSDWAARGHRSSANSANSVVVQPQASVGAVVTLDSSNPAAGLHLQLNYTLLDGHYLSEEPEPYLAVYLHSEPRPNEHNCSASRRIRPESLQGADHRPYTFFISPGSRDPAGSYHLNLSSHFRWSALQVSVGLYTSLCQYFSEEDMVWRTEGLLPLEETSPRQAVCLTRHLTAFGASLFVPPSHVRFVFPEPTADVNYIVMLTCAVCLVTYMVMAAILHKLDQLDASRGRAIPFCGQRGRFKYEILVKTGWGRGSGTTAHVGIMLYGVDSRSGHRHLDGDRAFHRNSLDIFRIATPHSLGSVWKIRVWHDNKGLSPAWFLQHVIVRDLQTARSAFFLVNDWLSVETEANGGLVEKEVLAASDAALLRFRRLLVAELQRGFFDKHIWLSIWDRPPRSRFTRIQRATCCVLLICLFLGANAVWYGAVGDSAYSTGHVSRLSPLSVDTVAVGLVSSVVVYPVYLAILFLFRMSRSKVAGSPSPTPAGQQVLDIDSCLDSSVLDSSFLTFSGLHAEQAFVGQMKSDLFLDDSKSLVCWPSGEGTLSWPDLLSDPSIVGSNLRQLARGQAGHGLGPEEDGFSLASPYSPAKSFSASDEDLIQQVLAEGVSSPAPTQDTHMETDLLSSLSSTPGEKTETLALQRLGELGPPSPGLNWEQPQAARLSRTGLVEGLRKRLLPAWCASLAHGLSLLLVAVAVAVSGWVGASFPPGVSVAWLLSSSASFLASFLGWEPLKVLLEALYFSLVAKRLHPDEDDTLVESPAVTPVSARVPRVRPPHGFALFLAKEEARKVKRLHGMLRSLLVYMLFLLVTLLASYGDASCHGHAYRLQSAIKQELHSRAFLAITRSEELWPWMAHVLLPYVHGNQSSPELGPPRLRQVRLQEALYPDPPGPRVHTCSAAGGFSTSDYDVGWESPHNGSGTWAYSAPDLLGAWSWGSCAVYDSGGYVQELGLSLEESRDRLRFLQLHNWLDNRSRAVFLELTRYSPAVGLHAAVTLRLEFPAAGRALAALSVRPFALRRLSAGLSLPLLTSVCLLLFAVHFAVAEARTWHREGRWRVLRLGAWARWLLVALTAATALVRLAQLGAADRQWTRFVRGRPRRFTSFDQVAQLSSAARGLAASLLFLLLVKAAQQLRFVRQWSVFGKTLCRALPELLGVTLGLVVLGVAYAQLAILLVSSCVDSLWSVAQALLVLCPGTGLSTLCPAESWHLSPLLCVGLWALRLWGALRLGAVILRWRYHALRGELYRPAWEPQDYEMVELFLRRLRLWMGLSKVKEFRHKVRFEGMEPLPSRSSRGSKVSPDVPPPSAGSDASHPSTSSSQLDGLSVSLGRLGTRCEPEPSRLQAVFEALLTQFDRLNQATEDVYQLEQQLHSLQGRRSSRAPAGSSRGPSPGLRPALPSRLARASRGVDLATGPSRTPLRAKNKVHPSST

For assay [1], the target named is Human PC1 215-amino-acid C-terminal tail fused to the GAL4 DNA-binding domain (human) (UniProt P98161). The assay can be described thus: two-hybrid; GAL4 system, YRG-2 yeast; bait in pPC97 (GAL4 DNA-binding domain), prey in pPC86; positive interaction scored by growth on triple selective medium (Leu-, Trp-, His-) and positive β-gal activity.
For assay [2], the target named is PC1-M1/M2, C-terminal 89 amino acids of PC1 containing the intact coiled-coil domain (human). The description is as above.
The target in assay [3] is Myc-tagged truncated PC1 lacking the C-terminal 257 amino acids (Pkd1^ΔCMYC/ΔCMYC embryos) (mouse (endogenous knock-in in embryos)). The assay can be described thus: co-IP; lysates of Pkd1^MYC/MYC, Pkd1^ΔCMYC/ΔCMYC and untagged wild-type mouse embryos; Myc-tagged PC1 immunoprecipitated (rabbit anti-Myc is listed among the IP antibodies); western blot.

No constants are given. Whether binding was seen depends on the method and setting. For part of these data: A result given as binding can be weak or reduced; the word gives no strength. For part of these data: Binding seen in cells or lysates may run through a third protein.

B1: Rabep1 amino acids 465 to 799 (yeast two-hybrid clone TH10-3) (domain or fragment, UniProt O35550 465-799)
chain: GFMLTKDQERAIKAMTPEQEETASLLSSVTQGMESAYVSPSGYRLVSETEWNLLQKEVHNAGNKLGRRCDMCSNYEKQLQGIQIQEAETRDQVKKLQLMLRQANDQLEKTMKEKQELEDFLRQSAEDSSHQISALVLRAQASEVLLEELQQSFSQAKRDVQEQMAVLMQSREQVSEELVRLQKDNDSLQGKHSLHVSLQLAEDFILPDTVQVLRELVLKYRENIVHVRTAADHMEEKLKAEILFLKEQIQAEQCLKENLEETLQLEIENCKEEIASISSLKAELERIKVEKGQLESTLREKSQQLESLQEIKVNLEEQLKKETAAKATVEQLMFE
B1: the binding entry in assay [1] and in assay [2] was “binds” throughout.

B2: Endogenous mouse Rabep1 (protein, UniProt O35551 1-862)
chain: MAQPGPAPQPDVSLQQRVAELEKINAEFLRAQQQLEQEFNQKRAKFKELYLAKEEDLKRQNAVLQAAQDDLGHLRTQLWEAQAEMENIKAIATVSENTKQEAIDEVKRQWREEVASLQAIMKETVRDYEHQFHLRLEQERAQWAQYRESAEREIADLRRRLSEGQEEENLENEMKKAQEDAEKLRSVVMPMEKEIAALKDKLTEAEDKIKELEASKVKELNHYLEAEKSCRTDLEMYVAVLNTQKSVLQEDAEKLRKELHEVCHLLEQERQQHNQLKHTWQKANDQFLESQRLLMRDMQRMEIVLTSEQLRQVEELKKKDQEEDEQQRVNKRKDNKKTDTEEEVKIPVVCALTQEESSTPLSNEEEHLDSTHGSVHSLDADLMLPSGDPFSKSDNDMFKDGLRRAQSTDSLGTSSSLQSKALGYNYKAKSAGNLDESDFGPLVGADSVSENFDTVSLGSLQMPSGFMLTKDQERAIKAMTPEQEETASLLSSVTQGMESAYVSPSGYRLVSETEWNLLQKEVHNAGNKLGRRCDMCSNYEKQLQGIQIQEAETRDQVKKLQLMLRQANDQLEKTMKEKQELEDFLKQSAEDSSHQISALVLRAQASEVLLEELQQSFSQAKRDVQEQMAVLMQSREQVSEELVRLQKDNDSLQGKHSLHVSLQLAEDFILPDTVEVLRELVLKYRENIVHVRTAADHMEEKLKAEILFLKEQIQAEQCLKENLEETLQLEIENCKEEIASISSLKAELERIKVEKGQLESTLREKSQQLESLQEMKVNLEEQLKKETAAKATVEQLMFEEKNKAQRLQTELDVSEQVQRDFVKLSQTLQVQLERIRQADSLERIRAILNDTKLTDINQLPET
On to B2, for which the binding result in assay [3] is “no binding”.
